Measured data: PubChem BioAssay AID1259405 (NCATS, 2018)

Aim: 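Knock-downs that lift recombinant protein yield in hamster ovary cells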 (primary screen)
Cells: Chinese hamster CHO-K1 ovary cells with stable secreted eGFP expression
Reagent: single siRNA against mouse genes, 0.8 pmol siRNA per well (2 µl of 400 nM stock)
Duration: 3 days
Detection: 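Percent of the per-plate non-targeting control median for intracellular GFP per well by laser scanning cytometry and for cell viability by ATP luminescence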
Scale: GFP, % of control: higher = more GFP per well, higher productivity; viability (ATP), % of control: higher = more viable cells (more ATP)
Rule for the call: 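Called active when intracellular GFP, relative to negative control, is at or above 120%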
The whole screen tested about 50,000 reagents; below is an unselected part. About 4,000 of all reagents (8%) were called active. 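Mouse siRNA library applied to hamster cells; one well for each siRNA.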

target gene | PubChem SID | GFP, % of control | viability (ATP), % of control | Call
Traf3ip2 (TRAF3 interacting protein 2) | SID363546712 | 132 | 109 | active
Traf3ip2 (TRAF3 interacting protein 2) | SID363548468 | 104 | 82 | inactive
Traf3ip2 (TRAF3 interacting protein 2) | SID363560646 | 168 | 116 | active
Pbxip1 | SID363554718 | 56.1 | 32.6 | inactive
Pbxip1 | SID363568165 | 26.4 | 24 | inactive
Pbxip1 | SID363586224 | 58.9 | 56.6 | inactive
Or8g33 (olfactory receptor family 8 subfamily G member 33) | SID363554780 | 90.8 | 64.1 | inactive
Or8g33 (olfactory receptor family 8 subfamily G member 33) | SID363568227 | 42.8 | 29.6 | inactive
Or8g33 (olfactory receptor family 8 subfamily G member 33) | SID363586286 | 74.9 | 95.6 | inactive
G6pdx (glucose-6-phosphate dehydrogenase X-linked) | SID363575023 | 71.6 | 80.5 | inactive
G6pdx (glucose-6-phosphate dehydrogenase X-linked) | SID363580655 | 79.2 | 76.3 | inactive
G6pdx (glucose-6-phosphate dehydrogenase X-linked) | SID363582767 | 82.2 | 63.4 | inactive
Or11h7 (olfactory receptor family 11 subfamily H member 7) | SID363544980 | 125 | 76.6 | active
Or11h7 (olfactory receptor family 11 subfamily H member 7) | SID363551308 | 81.9 | 83.1 | inactive
Or11h7 (olfactory receptor family 11 subfamily H member 7) | SID363557857 | 66.2 | 66.2 | inactive
Cks1b (CDC28 protein kinase 1b) | SID363581883 | 74.7 | 166 | inactive
Cks1b (CDC28 protein kinase 1b) | SID363589377 | 76.4 | 70.5 | inactive
Tbx6 (T-box 6) | SID363573621 | 91.8 | 90.9 | inactive
Tbx6 (T-box 6) | SID363581365 | 53 | 59.9 | inactive
Tbx6 (T-box 6) | SID363583829 | 45.7 | 68.8 | inactive
Nol11 (nucleolar protein 11) | SID363540652 | 65.1 | 76.1 | inactive
Nol11 (nucleolar protein 11) | SID363543103 | 27.7 | 49.5 | inactive
Nol11 (nucleolar protein 11) | SID363552596 | 113 | 68.2 | inactive
Dr1 (down-regulator of transcription 1) | SID363555399 | 67 | 80.3 | inactive
Dr1 (down-regulator of transcription 1) | SID363564060 | 66.8 | 60.5 | inactive
Dr1 (down-regulator of transcription 1) | SID363587606 | 106 | 106 | inactive
Zfp92 (zinc finger protein 92) | SID363541057 | 75.8 | 53 | inactive
Zfp92 (zinc finger protein 92) | SID363555684 | 106 | 98.5 | inactive
Zfp92 (zinc finger protein 92) | SID363565973 | 86.4 | 88.7 | inactive
Adck1 (aarF domain containing kinase 1) | SID363572752 | 55.5 | 101 | inactive
Adck1 (aarF domain containing kinase 1) | SID363578032 | 94.8 | 99.4 | inactive
Adck1 (aarF domain containing kinase 1) | SID363582256 | 59.2 | 119 | inactive
Paqr6 (progestin and adipoQ receptor family member VI) | SID363544885 | 76 | 89.8 | inactive
Paqr6 (progestin and adipoQ receptor family member VI) | SID363551213 | 102 | 69 | inactive
Paqr6 (progestin and adipoQ receptor family member VI) | SID363557762 | 65.1 | 91.8 | inactive

Entries above whose gene name starts with D or d (3):
target gene | PubChem SID | GFP, % of control | viability (ATP), % of control | Call
Dr1 (down-regulator of transcription 1) | SID363555399 | 67 | 80.3 | inactive
Dr1 (down-regulator of transcription 1) | SID363564060 | 66.8 | 60.5 | inactive
Dr1 (down-regulator of transcription 1) | SID363587606 | 106 | 106 | inactive
